Data published in paper doi:10.1101/2022.10.31.514466.
These are yes or no findings as the source states them, for the method shown. In cells and extracts the contact can be indirect. Some binding calls cover weakened binding; strength is not graded here.

Sequences of proteins named here, by UniProt entry; tags and fusion partners are left off. A change or cut given only in a name is not applied to a line headed by its entry. A line that says so, or that is headed by a name, gives the form on record, which may keep a tag or linker.
UniProt Q14694: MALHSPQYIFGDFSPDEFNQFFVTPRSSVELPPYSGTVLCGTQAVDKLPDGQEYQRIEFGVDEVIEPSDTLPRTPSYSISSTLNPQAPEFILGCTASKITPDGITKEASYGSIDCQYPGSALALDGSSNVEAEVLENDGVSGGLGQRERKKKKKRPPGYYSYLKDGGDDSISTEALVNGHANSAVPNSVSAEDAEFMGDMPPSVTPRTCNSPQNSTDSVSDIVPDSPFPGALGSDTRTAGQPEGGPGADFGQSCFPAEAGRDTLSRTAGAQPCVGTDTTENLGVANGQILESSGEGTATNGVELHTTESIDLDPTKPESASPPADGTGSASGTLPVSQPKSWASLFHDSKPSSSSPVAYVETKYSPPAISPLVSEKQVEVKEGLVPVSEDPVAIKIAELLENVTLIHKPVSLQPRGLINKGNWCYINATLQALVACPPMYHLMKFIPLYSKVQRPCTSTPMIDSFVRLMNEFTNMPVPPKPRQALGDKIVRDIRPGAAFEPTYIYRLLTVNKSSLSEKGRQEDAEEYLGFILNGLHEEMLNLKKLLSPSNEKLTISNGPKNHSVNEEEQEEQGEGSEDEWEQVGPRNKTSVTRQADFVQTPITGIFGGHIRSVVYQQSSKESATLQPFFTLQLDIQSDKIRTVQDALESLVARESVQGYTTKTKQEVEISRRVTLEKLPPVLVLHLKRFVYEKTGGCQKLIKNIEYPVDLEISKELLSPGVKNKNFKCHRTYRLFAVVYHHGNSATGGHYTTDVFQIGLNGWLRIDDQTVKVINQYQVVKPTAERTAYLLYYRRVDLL
GST-USP10 CA (Q14694, form named): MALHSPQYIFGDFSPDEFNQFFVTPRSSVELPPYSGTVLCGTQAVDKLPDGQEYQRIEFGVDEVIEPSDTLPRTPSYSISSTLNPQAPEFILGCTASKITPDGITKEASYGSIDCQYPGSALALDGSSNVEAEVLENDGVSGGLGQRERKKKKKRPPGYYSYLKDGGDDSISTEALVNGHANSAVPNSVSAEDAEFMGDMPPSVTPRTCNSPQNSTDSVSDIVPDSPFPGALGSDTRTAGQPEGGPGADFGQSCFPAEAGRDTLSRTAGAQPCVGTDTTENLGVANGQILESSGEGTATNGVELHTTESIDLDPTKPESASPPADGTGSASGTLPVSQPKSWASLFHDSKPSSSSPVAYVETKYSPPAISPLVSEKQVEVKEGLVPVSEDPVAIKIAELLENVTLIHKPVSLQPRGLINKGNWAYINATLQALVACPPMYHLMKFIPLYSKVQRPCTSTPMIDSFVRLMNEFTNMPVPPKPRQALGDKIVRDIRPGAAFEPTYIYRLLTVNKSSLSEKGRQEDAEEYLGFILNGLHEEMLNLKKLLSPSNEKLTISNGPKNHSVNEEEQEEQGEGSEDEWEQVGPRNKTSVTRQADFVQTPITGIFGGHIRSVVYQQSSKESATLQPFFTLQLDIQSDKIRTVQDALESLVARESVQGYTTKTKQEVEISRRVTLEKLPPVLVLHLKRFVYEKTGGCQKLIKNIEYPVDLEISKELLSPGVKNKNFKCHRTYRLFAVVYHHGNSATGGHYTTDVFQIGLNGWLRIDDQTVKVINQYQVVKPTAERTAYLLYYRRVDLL
UniProt O15169: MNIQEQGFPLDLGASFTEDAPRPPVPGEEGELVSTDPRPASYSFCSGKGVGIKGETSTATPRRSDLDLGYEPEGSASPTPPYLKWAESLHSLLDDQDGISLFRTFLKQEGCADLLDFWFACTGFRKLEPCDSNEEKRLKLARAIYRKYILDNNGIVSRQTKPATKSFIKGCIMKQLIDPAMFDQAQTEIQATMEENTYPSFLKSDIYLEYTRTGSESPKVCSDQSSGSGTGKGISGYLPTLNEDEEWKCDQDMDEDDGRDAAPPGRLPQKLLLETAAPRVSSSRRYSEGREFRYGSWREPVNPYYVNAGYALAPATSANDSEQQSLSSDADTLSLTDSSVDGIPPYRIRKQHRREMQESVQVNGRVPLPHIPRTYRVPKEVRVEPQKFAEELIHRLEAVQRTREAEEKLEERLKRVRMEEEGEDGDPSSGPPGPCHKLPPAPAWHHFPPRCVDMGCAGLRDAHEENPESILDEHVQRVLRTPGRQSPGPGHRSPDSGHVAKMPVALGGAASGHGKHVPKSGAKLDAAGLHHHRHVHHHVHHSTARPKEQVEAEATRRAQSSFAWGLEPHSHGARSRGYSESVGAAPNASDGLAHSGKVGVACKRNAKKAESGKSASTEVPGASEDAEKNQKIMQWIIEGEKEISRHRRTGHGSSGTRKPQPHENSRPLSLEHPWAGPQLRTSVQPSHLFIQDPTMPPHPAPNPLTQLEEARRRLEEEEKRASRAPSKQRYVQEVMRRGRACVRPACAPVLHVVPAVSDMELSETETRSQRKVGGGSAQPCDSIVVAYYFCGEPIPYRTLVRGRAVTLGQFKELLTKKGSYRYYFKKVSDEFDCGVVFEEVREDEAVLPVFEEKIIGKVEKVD
UniProt P35222: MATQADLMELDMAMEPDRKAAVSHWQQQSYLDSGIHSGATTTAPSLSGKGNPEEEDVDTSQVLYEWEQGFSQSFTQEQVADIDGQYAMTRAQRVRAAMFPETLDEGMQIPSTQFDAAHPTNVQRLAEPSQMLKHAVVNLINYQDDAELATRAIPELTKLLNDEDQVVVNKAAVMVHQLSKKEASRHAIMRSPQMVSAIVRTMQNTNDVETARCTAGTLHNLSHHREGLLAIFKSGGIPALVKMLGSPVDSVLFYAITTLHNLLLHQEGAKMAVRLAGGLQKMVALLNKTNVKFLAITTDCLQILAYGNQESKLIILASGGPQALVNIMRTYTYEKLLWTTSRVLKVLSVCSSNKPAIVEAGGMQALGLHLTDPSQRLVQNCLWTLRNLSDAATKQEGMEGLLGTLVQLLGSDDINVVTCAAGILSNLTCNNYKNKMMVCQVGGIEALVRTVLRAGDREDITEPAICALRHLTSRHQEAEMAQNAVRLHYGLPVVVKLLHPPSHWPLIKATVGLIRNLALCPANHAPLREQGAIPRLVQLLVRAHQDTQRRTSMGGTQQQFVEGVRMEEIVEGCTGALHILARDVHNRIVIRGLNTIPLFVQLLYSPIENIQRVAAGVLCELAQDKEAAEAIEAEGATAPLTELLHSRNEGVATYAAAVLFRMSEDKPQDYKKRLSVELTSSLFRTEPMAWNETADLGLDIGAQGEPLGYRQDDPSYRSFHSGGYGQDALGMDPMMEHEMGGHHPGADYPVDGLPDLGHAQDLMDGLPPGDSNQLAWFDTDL

Tests used:
GST-USP10 CA (human) = GST-USP10 CA (human) (UniProt Q14694); assay: pull-down
[1] = target: GST-USP10 full-length (human) (UniProt Q14694); assay: pull-down
Axin1 (endogenous) = Axin1 (endogenous) (UniProt O15169); assay: co-IP

| binding (GST-USP10 CA (human)) | binding [1] | binding (Axin1 (endogenous)) | Substance |
| --- | --- | --- | --- |
| binds | binds | – | Axin1 (prey of the GST-USP10 pull-downs) (from UniProt O15169 1-862) |
| – | – | binds | β-catenin (endogenous) (from UniProt P35222 1-781) |
